Measurements from patent US20070270484A1, “3'-N-Substituted-3-O-Substituted Erythronolide a Derivatives” (priority 2003, published 2007).

Experiments:
Type in all cases: cell-based
[1] = tested on: S. pneum 1251 (mef); assay: MIC, agar incorporation method (NCCLS agar dilution method); details: Streptococcus pneumoniae, read-out: Minimum Inhibitory Concentrations, S. pneum 1251 (mef)
Method: (§1) Drug dilutions and the agar plates are prepared by NCCLS method. Inoculum is prepared by direct colony suspensions in normal saline and adjusted to 0.5 McFarland turbidity and subsequently diluted as per NCCLS guidelines in order to obtain 10^4 CFU/spot. CFU/ml of a few randomly selected cultures is performed. The cultures are replicated on the agar plates using replicator (Denley's multipoint). The plates are incubated at 35±2° C. and in 5% CO2 atmosphere (for respiratory and Haemophilus strains) for 18-24 hours at 35±2° C. Minimum inhibitory concentrations (MIC) are determined after 18-24 hours. Q. C. strains are also included in each run of the study. The cation content of Mueller Hinton agar is checked by performing disk […] of 10 μg gentamicin disk against Pseudomonas aeroginosa ATCC 27853. The zone of inhibition should fall between 16-21 mm. The concentration of drug at which there is complete disappearance of growth spot or formation of less than 10 colonies per spot is considered as MIC.

[2] = tested on: S. pneum AB 34 (mef); assay: as above; details: Streptococcus pneumoniae, read-out: Minimum Inhibitory Concentrations, S. pneum AB 34 (mef)
Method: as §1

[3] = tested on: S. pneum 1294 (mef); assay: microbe, parasite or virus in culture; details: Streptococcus pneumoniae, read-out: Minimum Inhibitory Concentrations, S. pneum 1294 (mef)
Method: as §1

Measured: MIC

CCC[C@@H]1C[C@@H](C(=O)N[C@@H]([C@H]2O[C@H](SC)[C@H](O)[C@@H](O)[C@H]2O)[C@H](C)Cl)N(C)C1 [Cl, Clindamycin, reference compound]
0.03 µg/mL: all assays above
